Laboratory results as given in publication PMC9949715.
Construct, isoform or probe ends are uncertain for at least one entry. For some of these results: Negatives hold for the conditions tested. For some of these results: Results from cells or extracts need not show a direct contact. For some of these results: At least one verdict rests on a figure or table, not on a statement of the authors.

What was measured:
[1] = test system: CgYB (Y-box factor), truncated (Crassostrea gigas); experiment: EMSA; conditions: poly(dI:dC), EMSA: LightShift kit binding buffer, 3 pmol probe, 4 ul protein at 1 mg/ml (20 ul), 30 min, 25 C, recombinant protein, protein details: N-terminal 6xHis (pET-28a-SUMO), label: 5' biotin
[2] = test system: CgYB (Y-box factor), truncated (Crassostrea gigas); experiment: competition with a labelled probe; conditions: 10-fold excess unlabeled vs biotinylated g.-333C probe; EMSA: LightShift kit binding buffer, poly(dI:dC), 3 pmol probe, 4 ul protein at 1 mg/ml (20 ul), 30 min, 25 C; recombinant protein; protein details: N-terminal 6xHis (pET-28a-SUMO)
[3] = test system: CgSREBP, truncated (Crassostrea gigas); experiment: EMSA; conditions: poly(dI:dC), EMSA: LightShift kit binding buffer, 3 pmol probe, 4 ul protein at 1 mg/ml (20 ul), 30 min, 25 C, recombinant protein, protein details: 6xHis (pET-28a vector), label: 5' biotin
[4] = test system: CgSREBP, truncated (Crassostrea gigas); experiment: competition with a labelled probe; conditions: 10-fold excess unlabeled probe; EMSA: LightShift kit binding buffer, poly(dI:dC), 3 pmol probe, 4 ul protein at 1 mg/ml (20 ul), 30 min, 25 C; recombinant protein; protein details: 6xHis (pET-28a vector)
[5] = test system: Y-box factor (endogenous) (Crassostrea gigas); experiment: pull-down, MS; conditions: gill nuclear extract, Pull-down: 20 mM Tris-HCl, 4.5 mM EDTA, 60 mM NaCl, 10 mM HEPES, 5 mM CaCl2, 50 mM KCl, 9% sucrose, 12% glycerol, pH 7.5, room temperature, 15 min, protein in an extract, label: 5' biotin on strand 1

**Q.** Does “AAGGAGTGACCATCCCTTGCA (double strand) [g.-333C EMSA probe]” bind [1]?
**A.** binds

**Q.** Does “AAGGAGTGACCATCCCTTGCA (double strand) [g.-333C unlabeled competitor]” bind [2]?
**A.** binds

**Q.** Does “AAGGAGTGACTATCCCTTGCA (double strand) [g.-333T EMSA probe]” bind [1]?
**A.** no binding

**Q.** Does “AGAATCGCGTGAAAA (double strand) [Scd promoter SREBP probe]” bind [3]?
**A.** binds

**Q.** Does “AGAATCGCGTGAAAA (double strand) [Scd promoter SREBP unlabeled competitor]” bind [4]?
**A.** binds

**Q.** Does “GACGTTTTGAAAGGAGTGACCATCCCTTGCAGAACTAGTCT (double strand) [g.-333C pull-down probe]” bind [5]?
**A.** binds

**Q.** Does “GACGTTTTGAAAGGAGTGACTATCCCTTGCAGAACTAGTCT (double strand) [g.-333T pull-down probe]” bind ([5]; not among proteins pulled by g.-333T)?
**A.** no binding
